Some of these results come from one statement about several compounds together.
Experiments:
[1] = system: Puccinia recondita f. Sp. tritici; assay: In vivo preventive test on Puccinia recondita f. Sp. tritici (wheat brown rust); details: 1000 ppm of active ingredient, evaluated 10 days after inoculation
Podosphaera leucotricha = assay: Protective test on apple mildew (Podosphaera leucotricha); format: in vivo; details: 100 ppm of active ingredient, evaluated 10 days after inoculation
Sphaerotheca fuliginea = assay: In vivo protective test on Sphaerotheca fuliginea (cucumbers); details: 100 ppm of active ingredient, evaluated 7 days after inoculation
Alternaria solani = assay: In vivo protective test on Alternaria solani (leaf spot of tomato); details: 500 ppm of active ingredient, evaluated 7 days after inoculation
[2] = system: Erysiphe graminis f. sp. hordei; assay: In vivo preventive test on Erysiphe gramini (powdery mildew on barley); details: 1000 ppm of active ingredient, evaluated 7 days after inoculation
Uromyces appendiculatus = assay: In vivo protective test on Uromyces appendiculatus (beans); details: 100 ppm of active ingredient, evaluated 10 days after inoculation

SMILES | efficacy [1] [%] | efficacy (Sphaerotheca fuliginea) [%] | efficacy [2] [%] | other results
CCN(C)C=Nc1cc(C)c(Oc2ccnc(N(C)c3ccccc3)n2)cc1C [Compound 1, N′-{2,5-dimethyl-4-[2-(methyl-phenyl-amino)-pyrimidin-4-yloxy]-phenyl}-N-ethyl-N-methyl-formamidine] | ≥ 70 | ≥ 70 | ≥ 70 | efficacy (Podosphaera leucotricha): ≥ 70%; efficacy (Alternaria solani): ≥ 70%
CCN(C)C=Nc1cc(C)c(Oc2ccnc(Oc3cccc(Cl)c3C)n2)cc1C [Compound 2, N′-{4-[2-(3-chloro-2-methyl-phenoxy)-pyrimidin-4-yloxy]-2,5-dimethyl-phenyl}-N-ethyl-N-methyl-formamidine] | ≥ 70 | ≥ 70 | ≥ 70 | 
CCN(C)C=Nc1cc(C)c(Oc2cc(C)nc(Cl)n2)cc1C [Compound 3, N′-{4-[(2-chloro-6-methylpyrimidin-4-yl)oxy]-2,5-dimethylphenyl}-N-ethyl-N-methylimido-formamide] | ≥ 70 |  | ≥ 70 | 
CCN(C)C=Nc1cc(C)c(Oc2cc(C(C)(C)C)ncn2)cc1C [Compound 4] |  | ≥ 70 |  | efficacy (Podosphaera leucotricha): ≥ 70%; efficacy (Alternaria solani): ≥ 70%
CCN(C)C=Nc1cc(C)c(Oc2cc(Oc3cccc(C(F)(F)F)c3)ncn2)cc1C [Compound 5] |  | ≥ 70 | ≥ 70 | efficacy (Podosphaera leucotricha): ≥ 70%
CCN(C)C=Nc1cc(C)c(Oc2cc(-c3cccc(C(F)(F)F)c3)ncn2)cc1C [Compound 6] |  | ≥ 70 |  | 
CCN(C)C=Nc1cc(C)c(Oc2cc(C(F)(F)F)ncn2)cc1C [Compound 7] |  | ≥ 70 | ≥ 70 | efficacy (Podosphaera leucotricha): ≥ 70%
CCN(C)C=Nc1cc(C)c(Oc2ncnc(Oc3cccc(Cl)c3C)c2C)cc1C [Compound 8] |  | ≥ 70 | ≥ 70 | 
CCN(C)C=Nc1cc(C)c(Oc2ccnc(N(C)CC)n2)cc1C [Compound 10] | ≥ 70 | ≥ 70 | ≥ 70 | efficacy (Podosphaera leucotricha): ≥ 70%; efficacy (Alternaria solani): ≥ 70%
CCN(C)C=Nc1cc(C)c(Oc2ccnc(OC)n2)cc1C [Compound 11] | ≥ 70 |  | ≥ 70 | 
CCCN(C)c1nccc(Oc2cc(C)c(N=CN(C)CC)cc2C)n1 [Compound 13] | ≥ 70 | ≥ 70 | ≥ 70 | efficacy (Podosphaera leucotricha): ≥ 70%
CCN(C)C=Nc1cc(C)c(Oc2cc(Cl)ncn2)cc1C [Compound 15] | ≥ 70 |  | ≥ 70 | 
CCN(C)C=Nc1cc(C)c(Oc2ccnc(N3CCOCC3)n2)cc1C [Compound 19] | ≥ 70 |  | ≥ 70 | 
CCN(C)C=Nc1cc(C)c(Oc2ccnc(N3CCCCC3)n2)cc1C [Compound 21] | ≥ 70 |  | ≥ 70 | 
CCCN(C)C=Nc1cc(C)c(Oc2ccnc(N3CCCCC3)n2)cc1C [Compound 22] | ≥ 70 |  |  | 
CCN(C)C=Nc1cc(C)c(Oc2ccnc(Cl)n2)cc1C [Compound 23] | ≥ 70 |  | ≥ 70 | 
COc1nccc(Oc2cc(C)c(N=CN(C)C(C)C)cc2C)n1 [Compound 26] | ≥ 70 |  |  | 
CCN(C)C=Nc1cc(C)c(Oc2ccnc(Nc3cccc(Cl)c3)n2)cc1C [Compound 30] | ≥ 70 | ≥ 70 | ≥ 70 | 
Cc1cc(Oc2ccnc(N3C=NCC3)n2)c(C)cc1N=CN(C)C(C)C [Compound 31] | ≥ 70 |  |  | 
CCCN(C)C=Nc1cc(C)c(Oc2cc(C)nc(Cl)n2)cc1C [Compound 32] | ≥ 70 |  | ≥ 70 | 

SMILES | efficacy [1] [%] | efficacy (Sphaerotheca fuliginea) [%] | efficacy [2] [%] | other results
Cc1cc(Oc2ccnc(N3CCOCC3)n2)c(C)cc1N=CN(C)C(C)C [Compound 33] | ≥ 70 |  | ≥ 70 | 
Cc1cc(Oc2ccnc(N3CCCCC3)n2)c(C)cc1N=CN(C)C(C)C [Compound 34] | ≥ 70 |  |  | 
CCN(C)C=Nc1cc(C)c(Oc2ccnc(Oc3ccccc3)n2)cc1C [Compound 35] |  |  |  | efficacy (Podosphaera leucotricha): ≥ 70%
CCCN(C)C=Nc1cc(C)c(Oc2ccnc(N(C)C)n2)cc1C [Compound 38] | ≥ 70 |  | ≥ 70 | 
CCN(C)C=Nc1cc(C)c(Oc2cc(OC)ncn2)cc1C [Compound 39] | ≥ 70 |  |  | 
CCN(C)C=Nc1cc(C)c(Oc2cc(N(C)CC)ncn2)cc1C [Compound 43] | ≥ 70 |  |  | 
Cc1cc(Oc2nc(Cl)ncc2C)c(C)cc1N=CN(C)C(C)C [Compound 46] | ≥ 70 |  |  | 
CCOc1nccc(Oc2cc(C)c(N=CN(C)CC)cc2C)n1 [Compound 47] | ≥ 70 | ≥ 70 | ≥ 70 | efficacy (Uromyces appendiculatus): ≥ 70%
CCCN(C)c1cc(Oc2cc(C)c(N=CN(C)CC)cc2C)ncn1 [Compound 49] | ≥ 70 |  | ≥ 70 | efficacy (Uromyces appendiculatus): ≥ 70%
CCCN(C)C=Nc1cc(C)c(Oc2ccnc(Nc3cccc(Cl)c3)n2)cc1C [Compound 52] | ≥ 70 |  |  | 
CCCN(C)c1cc(Oc2cc(C)c(N=CN(C)C(C)C)cc2C)ncn1 [Compound 53] | ≥ 70 |  |  | 
CCN(C)C=Nc1cc(C)c(Oc2cc(Cl)nc(C(C)(C)C)n2)cc1C [Compound 59] |  | ≥ 70 | ≥ 70 | efficacy (Uromyces appendiculatus): ≥ 70%
Cc1cc(Oc2cc(Cl)nc(C(C)(C)C)n2)c(C)cc1N=CN(C)C(C)C [Compound 60] |  | ≥ 70 | ≥ 70 | efficacy (Uromyces appendiculatus): ≥ 70%
Cc1cc(Oc2ccnc(N(C)c3ccccc3)n2)c(C)cc1N=CN1CCCCC1 [Compound 61] |  | ≥ 70 | ≥ 70 | efficacy (Podosphaera leucotricha): ≥ 70%
CCN(C)C=Nc1cc(C)c(Oc2nc(Cl)ncc2Cl)cc1C [Compound 64] | ≥ 70 |  |  | 
Cc1cc(Oc2ccnc(Oc3ccccc3)n2)c(C)cc1N=CN(C)C(C)C [Compound 66] | ≥ 70 |  |  | 
CCCN(C)C=Nc1cc(C)c(Oc2ccnc(Oc3cccc(Cl)c3)n2)cc1C [Compound 67] | ≥ 70 | ≥ 70 |  | 
Cc1cc(Oc2ccnc(Oc3cccc(Cl)c3)n2)c(C)cc1N=CN(C)C(C)C [Compound 68] | ≥ 70 |  |  | 
CCN(C)C=Nc1cc(C)c(Oc2cc(Cl)nc(Cl)n2)cc1C [Compound 69] | ≥ 70 |  |  | 
CCN(C)C=Nc1cc(C)c(Oc2ccnc(Oc3ccc(F)c(F)c3)n2)cc1C [Compound 70] | ≥ 70 | ≥ 70 |  | efficacy (Uromyces appendiculatus): ≥ 70%

SMILES | efficacy [1] [%] | efficacy (Sphaerotheca fuliginea) [%] | efficacy [2] [%] | other results
CCN(C)C=Nc1cc(C)c(Oc2ccnc(Oc3ccc(OC)c(OC)c3)n2)cc1C [Compound 71] | ≥ 70 |  |  | 
CCN(C)C=Nc1cc(C)c(Oc2cc(C)nc(Oc3ccccc3)n2)cc1C [Compound 73] | ≥ 70 |  |  | 
COc1ccc(Oc2nccc(Oc3cc(C)c(N=CN4CCCCC4)cc3C)n2)cc1OC [Compound 74] | ≥ 70 |  |  | 
Cc1cc(Oc2ccnc(Oc3ccccc3)n2)c(C)cc1N=CN1CCCCC1 [Compound 76] | ≥ 70 |  |  | 
CCN(C)C=Nc1cc(C)c(Oc2ccnc(Oc3ccc(C(C)(C)C)cc3)n2)cc1C [Compound 77] | ≥ 70 |  |  | 
Cc1cc(Oc2ccnc(Oc3ccc(C(C)(C)C)cc3)n2)c(C)cc1N=CN1CCCCC1 [Compound 78] | ≥ 70 | ≥ 70 |  | 
CCN(C)C=Nc1cc(C)c(Oc2ccnc(Oc3cccc(C)c3)n2)cc1C [Compound 79] | ≥ 70 | ≥ 70 |  | 
Cc1cccc(Oc2nccc(Oc3cc(C)c(N=CN4CCCCC4)cc3C)n2)c1 [Compound 80] | ≥ 70 |  |  | 
CCN(C)C=Nc1cc(C)c(Oc2ccnc(Oc3ccc(Cl)cc3)n2)cc1C [Compound 81] | ≥ 70 | ≥ 70 |  | efficacy (Podosphaera leucotricha): ≥ 70%; efficacy (Uromyces appendiculatus): ≥ 70%
Cc1cc(Oc2ccnc(Oc3ccc(Cl)cc3)n2)c(C)cc1N=CN1CCCCC1 [Compound 82] | ≥ 70 | ≥ 70 |  | efficacy (Podosphaera leucotricha): ≥ 70%; efficacy (Uromyces appendiculatus): ≥ 70%
CCc1ncnc(Oc2cc(C)c(N=CN(C)CC)cc2C)c1Cl [Compound 83] | ≥ 70 |  |  | 
CCN(C)C=Nc1cc(C)c(Oc2ccnc(Oc3ccc(C(F)(F)F)cc3)n2)cc1C [Compound 87] | ≥ 70 | ≥ 70 |  | efficacy (Podosphaera leucotricha): ≥ 70%; efficacy (Uromyces appendiculatus): ≥ 70%
Cc1cc(Oc2ccnc(Oc3ccc(C(F)(F)F)cc3)n2)c(C)cc1N=CN1CCCCC1 [Compound 88] | ≥ 70 | ≥ 70 |  | efficacy (Podosphaera leucotricha): ≥ 70%; efficacy (Uromyces appendiculatus): ≥ 70%
CCN(C)C=Nc1cc(C)c(Oc2ncc(Cl)c(N(C)CC)n2)cc1C [Compound 89, N′-[4-({5-chloro-4-[ethyl(methyl)amino]pyrimidin-2-yl}oxy)-2,5-dimethyl-phenyl]-N-ethyl-N-methylimidoformamide] | ≥ 70 |  | ≥ 70 | 
CCN(C)C=Nc1cc(C)c(Oc2nccc(C(F)(F)F)n2)cc1C [Compound 90] |  |  | ≥ 70 | 
CCN(C)C=Nc1cc(C(C)C)c(Oc2nccc(C(F)(F)F)n2)cc1C [Compound 92] |  | ≥ 70 |  | efficacy (Podosphaera leucotricha): ≥ 70%
CCN(C)c1nc(Oc2cc(C)c(N=CN(C)C(C)C)cc2C)ncc1Cl [Compound 99] | ≥ 70 |  |  | 
CCN(C)c1nc(Oc2cc(C)c(N=CN3CCCCC3)cc2C)ncc1Cl [Compound 101] | ≥ 70 |  | ≥ 70 | 
